# Hit rate of the full screen: of about 290,000 compounds, about 110 (0.038%) were called active. Inconclusive results, whose numbers are uncertain, are shown with a selection of clear calls. Calls come from the whole dose curve; as a rule, active = well fitted inhibition curve with a large enough effect in the polarisation, with a control signal flat (not every such curve was filed as active); inconclusive = small, poorly fitted or top-dose-only effect, or effect the other way, or a change in a side signal; inactive = no such curve, though single readings can be large or run the other way; the % refers to the polarisation. Potencies of inconclusive entries are doubtful fits and often do not repeat. A note “side channel” means that the fit belongs to a control or component signal, not to the main read-out.
# The chains behind the UniProt entries cited, without tags or fusion partners.
# UniProt Q03164, whole entry, looked up: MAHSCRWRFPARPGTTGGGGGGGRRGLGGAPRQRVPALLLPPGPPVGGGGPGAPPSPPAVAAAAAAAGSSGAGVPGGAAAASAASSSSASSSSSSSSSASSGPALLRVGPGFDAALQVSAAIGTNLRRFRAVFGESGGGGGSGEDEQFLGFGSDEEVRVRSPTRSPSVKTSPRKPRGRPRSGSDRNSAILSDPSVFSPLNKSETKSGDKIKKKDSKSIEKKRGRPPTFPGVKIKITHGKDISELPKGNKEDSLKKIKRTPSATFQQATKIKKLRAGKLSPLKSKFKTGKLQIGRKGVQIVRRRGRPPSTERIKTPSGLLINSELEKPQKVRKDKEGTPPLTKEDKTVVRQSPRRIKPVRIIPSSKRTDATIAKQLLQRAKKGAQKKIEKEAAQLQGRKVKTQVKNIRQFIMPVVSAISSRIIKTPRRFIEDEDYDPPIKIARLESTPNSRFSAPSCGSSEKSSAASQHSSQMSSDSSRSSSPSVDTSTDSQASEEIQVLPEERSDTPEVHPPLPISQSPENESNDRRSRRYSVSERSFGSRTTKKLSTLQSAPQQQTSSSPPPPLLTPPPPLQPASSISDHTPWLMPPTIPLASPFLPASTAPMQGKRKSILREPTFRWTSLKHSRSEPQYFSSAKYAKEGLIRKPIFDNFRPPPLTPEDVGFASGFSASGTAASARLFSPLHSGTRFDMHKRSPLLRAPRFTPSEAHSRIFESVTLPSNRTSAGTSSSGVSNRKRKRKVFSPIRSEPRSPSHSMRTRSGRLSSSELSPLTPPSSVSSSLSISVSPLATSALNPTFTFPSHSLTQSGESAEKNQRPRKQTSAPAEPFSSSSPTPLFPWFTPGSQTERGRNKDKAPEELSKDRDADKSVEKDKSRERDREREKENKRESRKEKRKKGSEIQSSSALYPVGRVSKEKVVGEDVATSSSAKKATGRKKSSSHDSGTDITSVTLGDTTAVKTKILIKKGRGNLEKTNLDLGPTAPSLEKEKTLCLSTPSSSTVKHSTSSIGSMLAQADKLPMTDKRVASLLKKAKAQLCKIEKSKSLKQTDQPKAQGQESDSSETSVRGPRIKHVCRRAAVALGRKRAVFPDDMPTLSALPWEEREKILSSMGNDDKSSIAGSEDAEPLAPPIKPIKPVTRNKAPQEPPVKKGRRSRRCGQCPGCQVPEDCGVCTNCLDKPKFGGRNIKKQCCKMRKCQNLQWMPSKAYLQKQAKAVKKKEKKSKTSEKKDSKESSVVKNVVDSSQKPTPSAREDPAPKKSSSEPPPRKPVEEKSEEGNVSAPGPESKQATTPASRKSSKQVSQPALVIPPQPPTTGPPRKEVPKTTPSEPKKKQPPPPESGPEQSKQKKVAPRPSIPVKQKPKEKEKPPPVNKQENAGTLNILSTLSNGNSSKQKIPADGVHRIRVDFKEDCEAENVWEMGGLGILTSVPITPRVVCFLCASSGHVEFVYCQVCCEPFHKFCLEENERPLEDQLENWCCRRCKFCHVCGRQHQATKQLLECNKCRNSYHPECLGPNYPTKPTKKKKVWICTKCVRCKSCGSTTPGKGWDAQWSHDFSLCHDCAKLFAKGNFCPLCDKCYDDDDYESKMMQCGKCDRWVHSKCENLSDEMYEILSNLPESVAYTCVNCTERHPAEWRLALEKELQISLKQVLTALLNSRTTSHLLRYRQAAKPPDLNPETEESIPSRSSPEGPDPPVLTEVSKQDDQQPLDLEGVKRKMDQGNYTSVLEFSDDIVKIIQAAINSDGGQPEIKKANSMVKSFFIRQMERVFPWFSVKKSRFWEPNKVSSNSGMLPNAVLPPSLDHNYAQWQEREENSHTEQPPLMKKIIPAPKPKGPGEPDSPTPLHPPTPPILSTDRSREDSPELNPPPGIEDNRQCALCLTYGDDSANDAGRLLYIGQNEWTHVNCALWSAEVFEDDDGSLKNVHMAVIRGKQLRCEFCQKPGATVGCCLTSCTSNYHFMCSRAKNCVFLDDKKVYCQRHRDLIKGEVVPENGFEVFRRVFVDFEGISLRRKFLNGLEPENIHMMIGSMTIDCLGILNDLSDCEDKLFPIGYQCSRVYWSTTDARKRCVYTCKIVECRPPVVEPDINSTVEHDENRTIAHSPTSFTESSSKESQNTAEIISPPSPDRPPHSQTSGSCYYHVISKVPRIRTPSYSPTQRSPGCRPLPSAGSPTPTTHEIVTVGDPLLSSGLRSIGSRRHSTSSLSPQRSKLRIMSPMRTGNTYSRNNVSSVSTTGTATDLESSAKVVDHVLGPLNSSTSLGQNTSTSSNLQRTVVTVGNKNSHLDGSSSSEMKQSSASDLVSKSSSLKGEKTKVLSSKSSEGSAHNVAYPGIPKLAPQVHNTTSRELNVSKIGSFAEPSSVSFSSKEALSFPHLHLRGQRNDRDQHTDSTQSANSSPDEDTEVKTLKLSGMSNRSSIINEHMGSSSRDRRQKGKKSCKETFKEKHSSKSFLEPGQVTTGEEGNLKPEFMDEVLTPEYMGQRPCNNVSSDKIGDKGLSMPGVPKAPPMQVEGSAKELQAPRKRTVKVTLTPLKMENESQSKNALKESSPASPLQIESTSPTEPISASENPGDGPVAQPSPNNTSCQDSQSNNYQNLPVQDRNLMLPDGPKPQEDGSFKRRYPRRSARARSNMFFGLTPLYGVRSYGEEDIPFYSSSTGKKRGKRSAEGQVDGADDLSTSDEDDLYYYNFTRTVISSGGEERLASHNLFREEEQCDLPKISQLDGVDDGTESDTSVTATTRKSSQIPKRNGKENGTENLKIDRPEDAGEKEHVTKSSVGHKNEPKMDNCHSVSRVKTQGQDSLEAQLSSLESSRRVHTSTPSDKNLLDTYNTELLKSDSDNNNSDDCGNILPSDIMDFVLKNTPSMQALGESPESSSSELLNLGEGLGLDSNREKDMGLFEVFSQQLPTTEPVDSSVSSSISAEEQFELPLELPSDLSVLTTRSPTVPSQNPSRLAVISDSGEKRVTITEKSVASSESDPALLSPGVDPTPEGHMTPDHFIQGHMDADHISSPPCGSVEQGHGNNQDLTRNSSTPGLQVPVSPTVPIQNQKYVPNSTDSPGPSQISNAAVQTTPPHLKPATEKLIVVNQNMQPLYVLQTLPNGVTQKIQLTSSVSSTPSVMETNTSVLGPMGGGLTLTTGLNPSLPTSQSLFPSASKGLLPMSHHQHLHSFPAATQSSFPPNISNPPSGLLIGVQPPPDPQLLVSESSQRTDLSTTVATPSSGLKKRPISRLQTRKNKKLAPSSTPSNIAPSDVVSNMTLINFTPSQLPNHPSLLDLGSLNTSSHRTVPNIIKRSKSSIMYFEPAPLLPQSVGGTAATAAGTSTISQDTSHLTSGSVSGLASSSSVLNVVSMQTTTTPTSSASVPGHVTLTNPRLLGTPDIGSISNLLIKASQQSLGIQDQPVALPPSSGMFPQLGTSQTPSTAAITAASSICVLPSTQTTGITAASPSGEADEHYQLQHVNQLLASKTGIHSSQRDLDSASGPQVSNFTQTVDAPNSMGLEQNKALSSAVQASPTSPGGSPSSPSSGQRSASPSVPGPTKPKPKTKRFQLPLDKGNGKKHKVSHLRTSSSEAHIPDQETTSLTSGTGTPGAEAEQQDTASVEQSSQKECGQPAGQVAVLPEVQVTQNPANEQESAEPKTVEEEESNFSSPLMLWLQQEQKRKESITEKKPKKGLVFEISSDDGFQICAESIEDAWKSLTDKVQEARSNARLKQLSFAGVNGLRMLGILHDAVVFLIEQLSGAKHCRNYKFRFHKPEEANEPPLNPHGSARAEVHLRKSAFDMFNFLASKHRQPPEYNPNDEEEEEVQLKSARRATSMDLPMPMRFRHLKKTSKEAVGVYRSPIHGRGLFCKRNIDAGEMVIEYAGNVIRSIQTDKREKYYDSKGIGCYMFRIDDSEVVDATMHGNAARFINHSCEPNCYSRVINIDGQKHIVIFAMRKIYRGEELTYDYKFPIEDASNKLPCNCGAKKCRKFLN
# Target: Histone-lysine N-methyltransferase 2A (Homo sapiens) (UniProt Q03164)
# Experiment: qHTS Fluorescence Polarization Assay for Inhibitors of MLL CXXC domain - DNA interaction
# Conditions: MLL-CXXC / FITC-HOXA9 DNA fluorescence polarization; activity change, negative = inhibition: at 115 µM (top of the series)
# Procedure, shortened: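 Purified MLL-CXXC (added from a 7 uM solution) was preincubated 5 min at ambient with pinned compounds in 50 mM Tris-HCl pH 7.5, 50 mM NaCl, 1 mM DTT, 0.05% BSA. Fluorescein-labeled HOX-A9 DNA (50 nM solution) followed, 30 min, then polarization read.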
# Potency is the fitted concentration of half-maximal effect.
Compound,Potency,"activity change, negative = inhibition"
COc1cc2c(cc1OC)C(C(=O)NCc1ccco1)C(c1cccs1)N(C)C2=O (stereo not given),"inconclusive: 89.1 µM [fluorescent, side channel, single point]",
CC#C[C@]1(O)CC[C@H]2C3CCC4=CC(=O)CCC4=C3[C@@H](c3ccc(N(C)C)cc3)C[C@@]21C (stereo not given in full),,inactive: -3.92%
CC1C(=O)C(=O)C=CN1C (stereo not given),,inactive: -0.0101%
CCOC(=O)c1cnc2ccc(OC)cc2c1Nc1ccc(N2CCN(C)CC2)cc1,"inconclusive: 39.8 µM [quencher, side channel, single point]",
Cc1sc(-c2ccccn2)nc1OC(=O)c1ccc(F)cc1F,"inconclusive: 39.8 µM [fluorescent, side channel, partial curve]",
COc1ccc2[nH]c3c(N4CC(C)OC(C)C4)ncnc3c2c1 (stereo not given),"inconclusive: 63.1 µM [fluorescent, single point]",
O=C(O)c1cc(N=Nc2ccc(O)c(C(=O)O)c2)ccc1O,,inactive: -8.73%
O=C1CCNc2ccc(-c3ccccc3)cc21,"inconclusive: 7.08 µM [fluorescent, side channel, partial curve]",
COc1cccc(OC)c1C(=O)Nc1nnc(-c2cccs2)s1,,inactive: -6.95%
COc1ccc(CS(=O)(=O)CC(C)(O)c2ccccc2)cc1 (stereo not given),"inconclusive: 44.7 µM [inhibitor, single point]",
COc1ccc(S(=O)(=O)Nc2nc3c(s2)CCCC3)cc1,,inactive: -5.97%
CCCCC(=O)Nc1c(-c2ccc(OC)c(OC)c2)c(=O)c2ccccc2n1C,,inactive: 6.29%
Cn1ccnc1C(O)(c1ccccc1)c1nccn1C,"inconclusive: 316 µM [inhibitor, partial curve, poor fit]",
CCCCn1c(N)c(N(CCOC)C(=O)CCNC(=O)c2ccccc2Cl)c(=O)[nH]c1=O,"inconclusive: 31.6 µM [fluorescent, side channel, partial curve]",
COc1ccc(NC(=O)CN2CCN(CC(=O)Nc3ccc(F)cc3)CC2)cc1Cl,"inconclusive: 39.8 µM [fluorescent, side channel, partial curve]",
COc1ccc(-n2nnnc2SCC(=O)Nc2ccccc2N2CCOCC2)cc1OC,"inconclusive: 31.6 µM [inhibitor, single point]",
COc1ccc(C(CC(=O)O)c2ccc3c(c2)OCO3)cc1 (stereo not given),"inconclusive: 70.8 µM [fluorescent, side channel, single point]",
CCCOc1cccc(C2C(C(=O)c3cc4ccccc4o3)=C(O)C(=O)N2c2cc(C)on2)c1 (stereo not given),"inconclusive: 5.01 µM [quencher, side channel, partial curve]",
CC(C)c1nc(NCc2ccccc2)c(C#N)c2c1CCCC2,,inactive: 2.53%
Nc1cccc2nc3ccccc3cc12,"inconclusive: 15.8 µM [quencher, side channel, partial curve]",
COc1ccc(S(N)(=O)=O)cc1C(=O)N(C)CC(=O)Nc1ccc(N2CCOCC2)cc1,"inconclusive: 8.91 µM [quencher, side channel, partial curve]",
O=C1C(Nc2ccc(O)cc2)=C/C(=N/S(=O)(=O)c2cccs2)c2ccccc21,"inconclusive: 70.8 µM [quencher, side channel, single point]",

Compound,Potency,"activity change, negative = inhibition"
CCn1c(SCc2nc3sc(C(=O)O)c(C)c3c(=O)[nH]2)nc2ccccc21,"inconclusive: 31.6 µM [inhibitor, single point]",
Cc1ccc(NC(=O)COC(=O)CCc2ccc(S(=O)(=O)N3CCOCC3)cc2)cc1F,"inconclusive: 15.8 µM [fluorescent, side channel, single point]",
Cn1c(-c2ccccc2)cnc1NCc1ccc(-c2ccccc2)cc1,"inconclusive: 31.6 µM [quencher, side channel, partial curve]",
CCOc1ccccc1NC(=O)COC(=O)c1cc(C(=O)OC)cc([N+](=O)[O-])c1,"inconclusive: 11.2 µM [fluorescent, side channel, single point]",
Cc1cccc(N2C(=O)CS/C2=N\NC(=O)c2cccnc2)c1C,"inconclusive: 70.8 µM [inhibitor, single point]",
COc1ccc(NC(=O)N2CCCC2C(=O)NCC2CCCCC2)cc1 (stereo not given),"inconclusive: 89.1 µM [fluorescent, side channel, partial curve]",
CCCC1CCC(=NNC(=O)OC(C)(C)C)CC1 (stereo not given),"inconclusive: 50.1 µM [fluorescent, side channel, partial curve]",
Cc1cc(C(=O)N/N=C/c2ccco2)c2ccccc2n1,"inconclusive: 12.6 µM [quencher, side channel, partial curve, poor fit]",
O=[N+]([O-])c1ccc(O)c(C(C#Cc2ccccc2)N2CCOCC2)c1 (stereo not given),,inactive: -0.202%
CC1=C(C(N)=O)C(c2ccccn2)n2nc(SCc3ccccc3Cl)nc2N1 (stereo not given),,inactive: 13.7%
O=c1[nH]c2ccsc2c(=O)n1-c1ccc(F)cc1,,inactive: -8.12%
CCOC(=O)C1=C(C)N=c2s/c(=C\c3cccn3C)c(=O)n2C1c1cccc(OC)c1OC (stereo not given),"inconclusive: 31.6 µM [fluorescent, partial curve]",
Cc1nc(-c2cccnc2)sc1C(=O)Nc1ccc(C(F)(F)F)cc1,"inconclusive: 1.41 µM [quencher, side channel, full curve, poor fit]",
Fc1ccc(-n2nnc(-c3nccs3)n2)cc1,"inconclusive: 28.2 µM [inhibitor, partial curve]",
CCCCCC(O)(c1ccccc1)C(CN1CCOCC1)c1ccccc1 (stereo not given),,inactive: -0.154%
CC1Cc2ccccc2N1C(=S)NC(=O)c1ccco1 (stereo not given),"inconclusive: 3.55 µM [fluorescent, side channel, full curve, poor fit]",
Cc1ccccc1OCc1nnc(SCC(=O)Nc2ccc3c(c2)oc2ccccc23)n1C,,inactive: 32.7%
CCOC(=O)/C(N=Nc1sc(C(=O)OC)c(C)c1C(=O)OCC)=C(\O)CCl,"inconclusive: 70.8 µM [quencher, side channel, single point]",
CCOC(=O)/C(C(=O)Nc1ccccc1Cl)=C1/NC(C)(C)Cc2ccccc21,,inactive: 6.13%
CSc1nsc(/C=C/Nc2ccc(F)cc2F)c1C#N,"inconclusive: 44.7 µM [fluorescent, side channel, partial curve]",
Clc1ccc(Cn2ccc3ccccc32)cn1,"inconclusive: 31.6 µM [fluorescent, side channel, partial curve]",
Cc1ccc(NS(=O)(=O)c2ccc3c(c2)NC(=O)CCS3)cc1C,,inactive: 1.06%

# A second format for 3 compounds above:
Compound	Potency	activity change, negative = inhibition
Cn1c(-c2ccccc2)cnc1NCc1ccc(-c2ccccc2)cc1	inconclusive: 31.6 µM [quencher, side channel, partial curve]	
CC1=C(C(N)=O)C(c2ccccn2)n2nc(SCc3ccccc3Cl)nc2N1 (stereo not given)		inactive: 13.7%
Fc1ccc(-n2nnc(-c3nccs3)n2)cc1	inconclusive: 28.2 µM [inhibitor, partial curve]	

# The listing continues:

Compound,Potency,"activity change, negative = inhibition"
N#C/C(=C\c1ccccn1)c1nc2ccccc2s1,"inconclusive: 15.8 µM [fluorescent, full curve]",
C=CCOCC(O)Cn1c(N2CCCC2)nc2c1c(=O)n(C)c(=O)n2C (stereo not given),,inactive: 11.2%
O=C(Nc1ccncc1)c1ccc(Cl)cc1,"inconclusive: 70.8 µM [inhibitor, single point]",
CCOC(=O)C1(Cc2cccc(OC)c2)CCN(CCO)CC1,,inactive: -1.16%
Cc1ccc(SC2CCN(C(=O)C3CCC(=O)N(C4CC4)C3)CC2)cc1 (stereo not given),"inconclusive: 1.41 µM [quencher, side channel, full curve, poor fit]",
CCN(CC)CCCNc1nc2cc(OC)c(OC)cc2c2nc(-c3cccnc3)nn12,"inconclusive: 28.2 µM [quencher, side channel, partial curve]",
CCCN1C(=O)/C(=C/c2c(NCCCOC(C)C)nc3c(C)cccn3c2=O)SC1=S,"inconclusive: 6.31 µM [fluorescent, side channel, full curve]",
O=C(Nc1cc2c(oc1=O)CCCC2=O)c1ccc(Cl)cc1,"inconclusive: 14.1 µM [inhibitor, partial curve]",
CCOC(=O)c1nc(C)sc1-c1ccnn1S(=O)(=O)c1cccc(Cl)c1,,inactive: 3.32%
CCCCCC(O)(CCN1CCCCC1)c1ccc(OCC)cc1 (stereo not given),"inconclusive: 2.82 µM [fluorescent, side channel, full curve]",
O=C(Nc1ccc(F)cc1)c1cc(-c2ccccn2)nc2c(Cl)cccc12,,inconclusive: -9.94% [phenotype inactive]
CC(C)COC(=O)/C(C#N)=C/c1c[nH]c2ccccc12,"inconclusive: 44.7 µM [fluorescent, side channel, single point]",
N#C/C(=C(/O)c1ccc(Cl)c([N+](=O)[O-])c1)c1nc2ccccc2[nH]1,"inconclusive: 17.8 µM [inhibitor, partial curve, poor fit]",
Oc1[nH]c2ccccc2c1N=Nc1c(F)c(F)c(Cl)c(F)c1F,"inconclusive: 14.1 µM [fluorescent, side channel, single point]",
CN(C)c1ccc(NC(=O)Cn2cc3c(n2)CCCC3)cc1,"inconclusive: 31.6 µM [quencher, side channel, single point]",
CN(C1CCCC1)C1CCN(C(=O)CNC(=O)/C=C/c2ccccc2)CC1,"inconclusive: 63.1 µM [inhibitor, single point]",
Cc1cccc(CN(C)CCc2ccccn2)c1,,inactive: -1.04%
Oc1ccc(/C=C/c2ccc3cccc(O)c3n2)cc1Br,"inconclusive: 31.6 µM [fluorescent, side channel, partial curve]",
COc1ccc(C(=O)Nc2ccccc2N2CCN(C(=O)C(C)C)CC2)cc1Cl,,inactive: 1.77%
COc1cccc(/C=C2/C(=O)NN(c3ccccc3)C2=O)c1,,inactive: -3.4%
COc1ccc(N(CC(=O)N2CCN(C)CC2)S(=O)(=O)c2cc(C)ccc2OC)cc1Cl,"inconclusive: 14.1 µM [fluorescent, side channel, single point]",

# From PubChem BioAssay AID2662 (National Center for Advancing Translational Sciences (NCATS), 2010)
